Values are raw readings; no control value is given beside them.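 Each value averages three technical replicates run on separate plates. Reagent-free control wells on every plate corrected for the cells' own fluorescence, and DMSO-treated wells served as vehicle controls. No active or hit threshold is defined for these live-cell readings.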
Tests used:
U-2 OS [1] = test: AUC of caspase 3/7-positive object count (AUC (object count x time)); higher = more apoptotic or dead cells
Procedure: (§1)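 Live-cell Incucyte imaging of U-2 OS cells with Caspase-3/7 Green and Cytotox Red reagents. Compounds were tested mostly at 5, 10 and 20 uM, and cells were imaged every 4 h for up to 60 h. Value is the area under the curve of positive object counts over time, per channel: green = caspase 3/7, red = membrane-compromised, overlap = both.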

U-2 OS [2] = test: AUC of Cytotox red (membrane-compromised) object count (AUC (object count x time)); higher = more apoptotic or dead cells
Procedure: as §1

Row | Compound | AUC of caspase 3/7-positive object count (U-2 OS [1]; 5 µM) | AUC of caspase 3/7-positive object count (U-2 OS [1]; 10 µM) | AUC of caspase 3/7-positive object count (U-2 OS [1]; 20 µM) | AUC of Cytotox red (U-2 OS [2]; 5 µM) | AUC of Cytotox red (U-2 OS [2]; 10 µM) | AUC of Cytotox red (U-2 OS [2]; 20 µM) | AUC of caspase 3/7-positive object count (U-2 OS [1]; 40 µM) | AUC of caspase 3/7-positive object count (U-2 OS [1]; 80 µM) | AUC of Cytotox red (U-2 OS [2]; 40 µM) | AUC of Cytotox red (U-2 OS [2]; 80 µM)
1 | CN1C(=O)[C@]23CC4=CC=C[C@H](O)[C@H]4N2C(=O)[C@@]1(CO)SS3 | 564 | 403 | 702 | 946 | 819 | 866 |  |  |  | 
2 | Cc1ccc(C(=O)N(CCCN)[C@@H](c2oc3cc(Cl)ccc3c(=O)c2Cc2ccccc2)C(C)C)cc1.Cl | 374 | 636 | 214 | 374 | 1350 | 1420 |  |  |  | 
3 | COc1ccc(N(C(=O)CCl)C(C(=O)NCCc2ccccc2)c2cccs2)cc1Cl (centres undefined) | 665 | 833 | 890 | 1910 | 2150 | 1840 |  |  |  | 
4 | Cl.Cl.O=C(O)Cn1nnc(-c2ccc(CN(CCCCOc3ccc(CN4CCCC4)cc3)CCc3ccccc3)cc2)n1 | 40.9 | 46.5 | 65 | 25.5 | 28 | 50.9 | 448 | 635 | 1030 | 1340
5 | C[C@@H]1O[C@@H](O[C@H]2[C@H](OC(=O)[C@]34CCC(C)(C)C[C@H]3C3=CC[C@@H]5[C@@]6(C)C[C@H](O)[C@H](O[C@@H]7O[C@H](CO)[C@@H](O)[C@H](O)[C@H]7O)[C@@](C)(CO)[C@@H]6CC[C@@]5(C)[C@]3(C)CC4)O[C@H](CO)[C@@H](O)[C@@H]2O)[C@H](O)[C@H](O)[C@H]1O[C@@H]1OC[C@@H](O)[C@H](O)[C@H]1O | 64 | 46.7 | 27.1 | 51.1 | 35.6 | 23.9 |  |  |  | 
6 | C[C@@H]1Cc2c(Cl)cc(C(=O)N[C@@H](Cc3ccccc3)C(=O)O)c(O)c2C(=O)O1 | 137 | 186 | 324 | 97.6 | 143 | 268 |  |  |  | 
7 | O=C1c2ccccc2[Se](=O)N1c1ccccc1 (centres undefined) | 244 | 1150 | 678 | 261 | 1850 | 1780 |  |  |  | 
8 | O=NN(CCCl)C(=O)NC1CCCCC1 | 13.9 | 28.5 | 25.4 | 44.3 | 55.8 | 66 |  |  |  | 
9 | Oc1ccc2ccccc2c1SSc1c(O)ccc2ccccc12 | 35 | 282 | 396 | 41.4 | 264 | 327 |  |  |  | 
10 | CC[C@H]1CN2CCc3cc(OC)c(OC)cc3[C@@H]2C[C@@H]1C[C@H]1NCCc2cc(OC)c(OC)cc21.Cl.Cl.O | 416 | 677 | 797 | 382 | 655 | 677 |  |  |  | 
11 | O=C(NNS(=O)(=O)c1ccccc1F)c1cc(F)cc(-c2ccccn2)c1 | 60 | 55.7 | 69.5 | 45.7 | 43.2 | 40.7 |  |  |  | 
12 | CC(C)(C)C(=O)OCOc1cccc2c1C(=O)C1C3C=CC(CC3)C1C2=O (centres undefined) | 58.8 | 230 | 520 | 47.2 | 176 | 341 |  |  |  | 
13 | O=C1O[C@H]2[C@@H]3OC(=O)c4cc(O)c(O)c(O)c4-c4c(O)c(O)c5oc(=O)c6c(c(O)c(O)c7oc(=O)c4c5c76)-c4c(cc(O)c(O)c4O)C(=O)OC[C@H]3OC(O)[C@@H]2OC(=O)c2cc(O)c(O)c(O)c2-c2c1cc(O)c(O)c2O (some centres undefined) | 55.6 | 50 | 128 | 1.25 | -0.419 | 3.08 |  |  |  | 
14 | CC(C)C[C@H](NC(=O)[C@H](CCc1ccccc1)NC(=O)CN1CCOCC1)C(=O)N[C@@H](Cc1ccccc1)C(=O)N[C@@H](CC(C)C)C(=O)[C@@]1(C)CO1 | 1280 | 1280 | 1210 | 806 | 972 | 1010 |  |  |  | 
15 | CC1OC2=C(C(=O)C(=O)c3ccccc32)C1(C)C (centres undefined) | 619 | 697 | 760 | 669 | 890 | 1020 |  |  |  | 
16 | CC1(C)CC[C@]2(C(=O)O[C@@H]3O[C@H](CO)[C@@H](O)[C@H](O)[C@H]3O)CC[C@]3(C)C(=CC[C@@H]4[C@@]5(C)CC[C@H](O[C@@H]6O[C@H](C(=O)O)[C@@H](O)[C@H](O)[C@H]6O[C@@H]6O[C@H](CO)[C@@H](O)[C@H](O)[C@H]6O)C(C)(C)[C@@H]5CC[C@]43C)[C@@H]2C1 | 48.9 | 41.5 | 49.7 | 30.9 | 38.5 | 52.2 |  |  |  | 
17 | CO[C@H]1C[C@@H]2CC[C@@H](C)[C@@](O)(O2)C(=O)C(=O)N2CCCC[C@H]2C(=O)O[C@H]([C@H](C)C[C@@H]2CC[C@@H](O)[C@H](OC)C2)CC(=O)[C@H](C)/C=C(\C)[C@@H](O)[C@@H](OC)C(=O)[C@H](C)C[C@H](C)/C=C/C=C/C=C/1C | 42.7 | 47 | 52.4 | 26.9 | 43.7 | 51.4 |  |  |  | 
18 | CN(C)/N=N/c1nc[nH]c1C(N)=O | 20.2 | 10.5 | 18 | 42.1 | 42.3 | 77.7 |  |  |  | 
19 | O=C1C=CC(=O)N1c1ccccc1 | 461 | 822 | 1090 | 1370 | 1780 | 1500 |  |  |  | 
20 | Cl.Nc1ccc(O)c2ccccc12 |  | 58.8 |  | 51.2 | 51.9 | 619 |  |  |  | 
21 | C=C(C)[C@H]1Cc2c(ccc3c2O[C@@H]2COc4cc(OC)c(OC)cc4[C@@H]2C3=O)O1 | 340 | 449 | 487 | 505 | 694 | 723 |  |  |  | 
22 | CC(=O)c1c(O)c(C)c(O)c(Cc2c(O)c3c(c(C(=O)C=Cc4ccccc4)c2O)OC(C)(C)C=C3)c1O | 24.4 | 33.5 | 44.5 | 27.8 | 22.5 | 1.51 | 67.3 | 294 | 0.922 | 0.755
23 | O=C(c1ccc(/C=C/c2n[nH]c3ccccc23)cc1)N1CCNCC1 | 35.3 | 115 | 259 | 63.3 | 153 | 344 |  |  |  | 

2 compounds from above, limited to AUC of Cytotox red (U-2 OS [2]; 10 µM), AUC of caspase 3/7-positive object count (U-2 OS [1]; 80 µM) and AUC of Cytotox red (U-2 OS [2]; 5 µM):
Row,Compound,AUC of Cytotox red (U-2 OS [2]; 10 µM),AUC of caspase 3/7-positive object count (U-2 OS [1]; 80 µM),AUC of Cytotox red (U-2 OS [2]; 5 µM)
14,CC(C)C[C@H](NC(=O)[C@H](CCc1ccccc1)NC(=O)CN1CCOCC1)C(=O)N[C@@H](Cc1ccccc1)C(=O)N[C@@H](CC(C)C)C(=O)[C@@]1(C)CO1,972,,806
22,CC(=O)c1c(O)c(C)c(O)c(Cc2c(O)c3c(c(C(=O)C=Cc4ccccc4)c2O)OC(C)(C)C=C3)c1O,22.5,294,27.8
